Source: patent US20090176209A1
Results are given in words; binding and its absence hold for the method and conditions named. For part of these data: Binding calls can cover weak binding; strength is not graded here. Tags and fused reporters may be left off the sequences shown.

Columns and labels:
[1] = target: protein L (Pierce), biotinylated (Peptostreptococcus magnus); assay: capture on coated PCR tubes without 3F10 mAb; PCR and gel
[2] = target: protein L (Pierce), biotinylated (Peptostreptococcus magnus); assay: capture on coated PCR tubes in the presence of 3.4 nM 3F10 mAb; PCR and gel
[3] = target: protein L (Pierce), biotinylated (Peptostreptococcus magnus); assay: emulsion expression with 3.4 nM 3F10 mAb; capture on coated PCR tubes; PCR and gel
[4] = target: protein L (Pierce), biotinylated (Peptostreptococcus magnus); assay: protein-DNA complex captured on biotinylated protein in streptavidin-coated PCR tubes; co-captured DNA detected by PCR and gel

B1: Vκ(E5)-scArc-HA fusion protein (Vκ(E5) fused to the N-terminus of scArc; pIE2AVκ(E5) series constructs) (protein)
chain: MGSTDIQMTQSPSSLSASVGDRVTITCRASQSVSSYLNWYQQKPGKAPKLLIYLASRLQSGVPSRFSGSGSGTDFTLTISSLQPEDFATYYCQQNWWLPPTFGQGTKVEIKRAAAGSGGGSGGGHMKGMSKMPQFNLRWPREVLDLVRKVAEENGRSVNSEIYQRVMESFKKEGRIGAGGGSGGGSGGGSGGGHMKGMSKMPQFNLRWPREVLDLVRKVAEENGRSVNSEIYQRVMESFKKEGRIGAGGGSGGGSYPYDVPDYA
Q: How did the binding [1] turn out when B1 was run?
A: binds

Q: What about the binding [2] of the same binder?
A: binds

Q: What about the binding [3] of the same binder?
A: binds

B2: HA-tagged scArc repressor expressed from pIE2aA / pIE2a^2A-derived genetic elements (protein)
chain: MGSTGGAAAGSGGGSGGGHMKGMSKMPQFNLRWPREVLDLVRKVAEENGRSVNSEIYQRVMESFKKEGRIGAGGGSGGGSGGGSGGGHMKGMSKMPQFNLRWPREVLDLVRKVAEENGRSVNSEIYQRVMESFKKEGRIGAGGGSGGGSYPYDVPDYA
Q: With B2 as the binder, how does the binding [4] read?
A: no binding

B3: scArc expressed from pIE7aA, pIE7a2A, pIE7a3A or pIE7a4A (protein)
chain: MGSTGGAAAKEAAAKEAAAKEAAAKELAAKEAAAKEAAAKEAAAKELAAGSGGGSGGGHMKGMSKMPQFNLRWPREVLDLVRKVAEENGRSVNSEIYQRVMESFKKEGRIGAGGGSGGGSGGGSGGGHMKGMSKMPQFNLRWPREVLDLVRKVAEENGRSVNSEIYQRVMESFKKEGRIGAGGGSGGGSYPYDVPDYA
Q: B3 was tested. Which binding [4] did it give?
A: no binding

B4: HA-tagged scArc repressor expressed from pIE3A / pIE3aA-derived genetic elements (protein)
chain: MSGSGGGSGGGHMKGMSKMPQFNLRWPREVLDLVRKVAEENGRSVNSEIYQRVMESFKKEGRIGAGGGSGGGSGGGSGGGHMKGMSKMPQFNLRWPREVLDLVRKVAEENGRSVNSEIYQRVMESFKKEGRIGAGGGSGGGSMGSTGGAAARSYPYDVPDYA
Q: For B4, which binding [4] is on record?
A: no binding
